Measurements published in publication PMC9469980.
Results are given in words; binding and its absence hold for the method and conditions named. In cells and extracts the contact can be indirect. Some results given as binding are weak or reduced against the parent protein; the word gives no strength.

Protein sequences, listed by entry. Tags and fused reporters are not part of them.
UniProt P08962: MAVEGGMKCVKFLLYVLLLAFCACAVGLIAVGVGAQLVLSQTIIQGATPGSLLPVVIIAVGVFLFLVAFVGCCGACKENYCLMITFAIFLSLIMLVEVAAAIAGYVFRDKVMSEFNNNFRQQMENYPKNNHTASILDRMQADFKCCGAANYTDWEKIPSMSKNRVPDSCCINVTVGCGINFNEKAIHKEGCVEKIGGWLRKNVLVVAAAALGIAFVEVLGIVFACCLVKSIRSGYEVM

Target: T1, flotillin-1 (UniProt O75955)
T1 sequence: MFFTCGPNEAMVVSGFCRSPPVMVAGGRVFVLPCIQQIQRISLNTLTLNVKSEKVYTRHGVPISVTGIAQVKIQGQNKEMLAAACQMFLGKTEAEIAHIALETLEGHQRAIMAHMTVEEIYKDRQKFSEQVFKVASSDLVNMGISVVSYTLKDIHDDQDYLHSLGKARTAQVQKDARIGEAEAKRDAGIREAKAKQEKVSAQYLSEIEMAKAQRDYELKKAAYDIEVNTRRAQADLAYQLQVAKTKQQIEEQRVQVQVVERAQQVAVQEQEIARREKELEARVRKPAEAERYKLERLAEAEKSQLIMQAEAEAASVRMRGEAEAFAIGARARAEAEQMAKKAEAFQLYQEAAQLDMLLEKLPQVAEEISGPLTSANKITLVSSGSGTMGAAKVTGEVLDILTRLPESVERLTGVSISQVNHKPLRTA
Experiment: co-IP; EV isolates (ExoQuick-TC) from supernatants of mock- or CVB-infected cells (MOI 0.1, 24 h); immunoprecipitated with flotillin-1 antibody on protein A/G PLUS-Agarose beads; blotted for VP1, flotillin-1 and CD63

- binding: binds
Substance: CD63 (from UniProt P08962 1-238)
